Experimental data reported in PMC3293909.
Results are given in words; binding and its absence hold for the method and conditions named. In cells and extracts the contact can be indirect. A result given as binding can be weak or reduced; the word gives no strength.

Biological target: T1, sodium hydrogen exchange regulatory factor 1 (NHERF1) (mouse (endogenous in primary osteoclasts)) (UniProt P70441)
T1 sequence: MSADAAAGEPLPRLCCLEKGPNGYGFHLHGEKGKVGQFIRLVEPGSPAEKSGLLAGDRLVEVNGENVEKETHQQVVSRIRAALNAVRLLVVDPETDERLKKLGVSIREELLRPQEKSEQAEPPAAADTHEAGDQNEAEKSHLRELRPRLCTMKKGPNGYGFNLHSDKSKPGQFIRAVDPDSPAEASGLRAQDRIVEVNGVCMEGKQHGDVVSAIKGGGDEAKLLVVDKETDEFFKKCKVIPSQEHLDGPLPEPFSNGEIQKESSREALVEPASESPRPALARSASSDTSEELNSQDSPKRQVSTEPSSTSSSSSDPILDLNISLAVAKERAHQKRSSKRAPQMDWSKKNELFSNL
Assay: co-IP; differentiated osteoclasts (splenocytes, M-CSF and RANKL for 4 days) stimulated with clustered EphB2-Fc for 5 min, cross-linked with dithiobis (succinimidyl) propionate, lysed (50 mM HEPES pH 7.5, 100 mM NaCl, 10 mM EDTA, 10% glycerol, 1% Triton X-100); 300 µg lysate, 4 µg anti-NHERF1 or control IgG, protein A/G-Sepharose, 4°C; Western blot for ephrin B1

binding: binds
Substance: ephrin B1
